# Hit rate of the full screen: of about 52,000 sequences, about 210 (0.4%) were called active.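 How the source made its calls: active means gene whose silencing raises cell survival under the drug, median off-target-corrected z-score across its silencing RNAs 2 or more; inactive means the rest.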 This is one part of the list.
# Test: Resistance to Poly (ADP-Ribose) Polymerase inhibitor: Gene Identification via Genome-wide siRNA Screen
# Conditions: mouse BRCA2 R2336H ES cells, olaparib, CellTiter-Glo viability; hits give high values
# How it was run: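 Mouse BRCA2 R2336H ES cells were reverse-transfected with siRNA (20 nM final), treated at 48 h with 500 nM olaparib, and read by CellTiter-Glo after 72 h. Scores: MAD-based z per siRNA, median per gene, seed off-target correction.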
row,Sequence,z-score
1,GCUCAUUCGGACCAAAACUTT against Card4,inactive: 0.211
2,GGUUCUGAGUCUUAUCUUCTT against Sult5a1,inactive: 0.609
3,GGAUUCAGAAGGCCUCAGUTT against Olfr399,inactive: 0.794
4,CCUGGAGUUAGUUUGACAGTT against Atf4,inactive: -2.52
5,GGUUCAAGGGCCAGAUCCUTT against Rpl32,inactive: -2.81
6,GCAGCCGAUUAUCAGCGAATT against Cyp7b1,inactive: -1.06
7,GGAGACAUCAACAAGUUGATT against A030013D21,inactive: 0.585
8,GCUCGAGCUUUAUUUAAAUTT against Adarb1,inactive: 0.784
9,GCCACUAAAUCCUGUUUCCTT against 1810015A11Rik,inactive: -0.28
10,GCGACACCUUUUUUUGGGATT against Ppp1r3c,inactive: -0.174
11,GCUUCGAAGCAACAUCCGATT against Rims3,inactive: 0.688
12,GGAGUCAGACUGAUGUCAUTT against Cdipt,inactive: 1.08
13,GGAAAGAGUUCAACAGGGATT against Ian1,inactive: -1.01
14,GGAGUUUCCACAAGACCUGTT against Csrp3,inactive: 0.897
15,CCAGUUGGAAAUAUGACGATT against 2510002A14Rik,inactive: 0.99
16,GGAGCAUGAGUAUUACAAUTT against Pi16,inactive: 0.279
17,CCAAUGUUGGCAUUAUGUUTT against Fah,inactive: 0.645
18,GGUGGAUACAGUGUACACUTT against Cldn13,inactive: -0.634
19,GGAUUGUCAAUUCUUCCCUTT against 9130020L07Rik,inactive: 0.732
20,GGAGAAGAUUGUAAAGGGCTT against Lig3,inactive: -2.01
21,GCUCUUUUAACGUAAUGGGTT against Cpe,inactive: 3
22,GCUCAGUUCUGUCACUUGCTT against Rs1h,inactive: -0.466
23,GCAGACCCAAAAGCAUUAATT against A930014K01Rik,inactive: 0.0472
24,GCGACUCAUUAAGGAUGUGTT against MGI:1923902,inactive: 1.82
25,GCCAAAAUUUCUCUAGCAUTT against Olfr1445,inactive: 2.23
26,GGAGAUUGACAUUAGCAACTT against Rps6ka2,inactive: 0.871

row,Sequence,z-score
1,GGUUCACGAAGAACAUAAATT against MGC27863,inactive: -0.057
2,GCUUCCUAACUUGAAAGCATT against Etos1,inactive: 0.157
3,GGAUCUCUCUUUCCUCCUCTT against Gli,inactive: 2.09
4,CCGCUUUUCCUGCCUCUGUTT against Egfl9,inactive: -1.78
5,CGAAGGAGAUUCCGAUAAATT against Arl12,inactive: 0.472
6,GCUAGGACUACAGCUGGGATT against 6530403A03Rik,inactive: 2.26
7,CGACACUCCGAUCGUCAAGTT against Grm4,inactive: -0.336
8,GGCUUAAAGGUCCUGUGCUTT against Ighmbp2,inactive: 0.484
9,GGAGAGCAAGGAGAACCAATT against Itga7,inactive: -1.21
10,GGAAGAUGUCCAAACCCGCTT against Tm4sf7,inactive: 0.167
11,CGAUGGCUUGGUUCCAUUUTT against Eapa2,inactive: -1.37
12,GACAUUGGGACCUUCGAGATT against 1500041B16Rik,inactive: -0.687
13,GGGACGAGAUUGAAGAAGATT against Snx2,inactive: -2.04
14,CCGUUUAUGACAAUGGCGUTT against Tub,inactive: -0.103
15,CGAAAUCCUAGUUUCGUCCTT against 2210013K02Rik,inactive: 2.24
16,GGUAUCUCCUGUGAACGACTT against 6330407G04Rik,inactive: -0.337
17,GGAUCCAUAUGCUAAUCUATT against AV312086,inactive: -0.853
18,GGAGAAUAUAGCAGGAGGUTT against BC049697,inactive: 0.85
19,GCAGGGAUUUUAACCAAUATT against 2610204M08Rik,inactive: -0.0565
20,GGUAAACCUUUCUACCUUATT against Il8rb,inactive: -0.206
21,CCCGGAAAAUUGUAUUGGATT against Klhl6,inactive: -0.704
22,GGAGGAAAGUAUGAAGAAATT against Cyp2j9,inactive: 0.56
23,GGCUGUGACUCUGGAUUUGTT against Bdh,inactive: -0.875
24,GGCCAAGAAUGAUCGUUCUTT against Gabrb3,inactive: -0.525
25,GGAUAGAGCACAGAUCCAGTT against Siat8e,inactive: -1.03
26,GGCCUUUGUAGUAUCCCAGTT against 2310041H06Rik,inactive: 3.12

# Some of the entries above, reformatted:
row | Sequence | z-score
4 | CCUGGAGUUAGUUUGACAGTT against Atf4 | inactive: -2.52
26 | GGAGAUUGACAUUAGCAACTT against Rps6ka2 | inactive: 0.871
12 | GACAUUGGGACCUUCGAGATT against 1500041B16Rik | inactive: -0.687
17 | GGAUCCAUAUGCUAAUCUATT against AV312086 | inactive: -0.853
